Experimental data from publication PMC12771342.
These are yes or no findings as the source states them, for the method shown. Binding seen in cells or lysates may run through a third protein. Some binding calls cover weakened binding; strength is not graded here.

Amino acid sequences for entries named in this document (tags omitted).
UniProt Q8K4Q0: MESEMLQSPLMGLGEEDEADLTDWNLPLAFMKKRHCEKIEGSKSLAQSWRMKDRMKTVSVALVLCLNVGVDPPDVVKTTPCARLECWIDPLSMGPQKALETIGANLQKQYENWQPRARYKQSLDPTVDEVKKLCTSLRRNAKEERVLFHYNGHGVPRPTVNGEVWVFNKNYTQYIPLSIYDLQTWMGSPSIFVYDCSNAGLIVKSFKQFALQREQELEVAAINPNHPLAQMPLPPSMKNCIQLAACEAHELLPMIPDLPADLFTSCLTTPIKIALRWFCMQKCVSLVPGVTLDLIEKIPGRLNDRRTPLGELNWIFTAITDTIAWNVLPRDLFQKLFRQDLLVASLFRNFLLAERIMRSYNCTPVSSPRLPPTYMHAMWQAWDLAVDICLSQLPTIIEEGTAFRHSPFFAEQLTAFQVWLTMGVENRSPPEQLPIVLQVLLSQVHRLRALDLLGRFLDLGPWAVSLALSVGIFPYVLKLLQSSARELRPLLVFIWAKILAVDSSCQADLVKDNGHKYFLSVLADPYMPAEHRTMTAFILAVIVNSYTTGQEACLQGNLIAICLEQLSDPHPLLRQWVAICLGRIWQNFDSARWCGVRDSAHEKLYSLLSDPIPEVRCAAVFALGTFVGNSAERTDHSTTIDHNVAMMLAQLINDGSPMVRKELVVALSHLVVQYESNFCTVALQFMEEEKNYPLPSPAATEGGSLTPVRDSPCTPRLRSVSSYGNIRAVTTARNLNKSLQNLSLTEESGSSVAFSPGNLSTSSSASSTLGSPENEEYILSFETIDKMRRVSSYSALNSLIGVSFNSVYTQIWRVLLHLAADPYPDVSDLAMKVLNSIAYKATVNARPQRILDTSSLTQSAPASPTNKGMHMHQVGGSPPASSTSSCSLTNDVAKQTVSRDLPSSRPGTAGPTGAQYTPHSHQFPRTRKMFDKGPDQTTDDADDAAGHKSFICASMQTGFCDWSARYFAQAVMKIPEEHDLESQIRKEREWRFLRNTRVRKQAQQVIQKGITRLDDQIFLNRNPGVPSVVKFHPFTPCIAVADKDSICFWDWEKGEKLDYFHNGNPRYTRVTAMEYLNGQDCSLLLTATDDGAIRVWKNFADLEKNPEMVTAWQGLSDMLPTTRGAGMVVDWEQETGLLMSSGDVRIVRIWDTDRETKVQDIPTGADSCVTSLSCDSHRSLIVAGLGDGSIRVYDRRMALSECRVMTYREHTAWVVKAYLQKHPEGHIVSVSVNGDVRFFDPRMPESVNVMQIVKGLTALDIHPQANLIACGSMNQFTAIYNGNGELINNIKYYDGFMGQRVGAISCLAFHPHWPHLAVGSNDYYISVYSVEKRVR
UniProt P28033: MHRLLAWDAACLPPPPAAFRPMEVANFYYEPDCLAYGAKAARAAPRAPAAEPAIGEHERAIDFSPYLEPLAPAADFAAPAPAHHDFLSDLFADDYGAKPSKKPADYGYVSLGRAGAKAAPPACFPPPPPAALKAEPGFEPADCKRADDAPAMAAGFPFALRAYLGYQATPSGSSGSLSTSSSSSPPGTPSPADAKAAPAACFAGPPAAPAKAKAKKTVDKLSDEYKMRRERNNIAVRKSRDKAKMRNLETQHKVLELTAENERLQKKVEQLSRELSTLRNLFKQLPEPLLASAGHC

Target: Raptor (mouse (endogenous in cardiac macrophages of BALB/c mice)) (UniProt Q8K4Q0)
Test: co-IP; immunoprecipitation of Raptor, immunoblot for total and phosphorylated C/EBPβ; cardiac macrophages from Con, Rap, EAM and EAM + Rap mice

binding: binds
Substance: CCAAT/enhancer-binding protein beta (from UniProt P28033 1-296)
